Reference: PMC11108907
These are yes or no findings as the source states them, for the method shown. In cells and extracts the contact can be indirect. Some results given as binding are weak or reduced against the parent protein; the word gives no strength.

Protein sequences, listed by entry. Tags and fused reporters are not part of them.
UniProt P63159: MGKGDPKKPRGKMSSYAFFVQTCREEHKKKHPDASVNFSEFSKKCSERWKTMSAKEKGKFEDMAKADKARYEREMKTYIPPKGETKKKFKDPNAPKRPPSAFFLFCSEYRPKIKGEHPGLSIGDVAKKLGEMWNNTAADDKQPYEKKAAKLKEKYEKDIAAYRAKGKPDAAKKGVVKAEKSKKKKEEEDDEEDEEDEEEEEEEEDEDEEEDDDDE

Target: high-mobility group box 1 (HMGB1) (rat (endogenous in SD rat brain tissue)) (UniProt P63159)
Assay: co-IP; Whole tissue lysates of rats (Control, SS, SS + LGA and SS + HGA groups) immunoprecipitated with anti-HMGB1, anti-PP2Ac or anti-PKCα antibody overnight at 4 °C, captured on protein A/G agarose beads, then immunoblotted

protein kinase C alpha (PKCα) (from UniProt P05696 1-672) (enzyme)
binding: binds
